These are yes or no findings as the source states them, for the method shown.
Molecular target: low-density lipoprotein (LDL) receptor-related protein 1 (LRP1), purified human full-length (human) (UniProt Q07954)
Assay: ELISA; solid-phase binding assay; human full-length LRP1 (10 nmol/L) coated overnight at 4 °C onto microtiter plates in 50 mmol/L Tris-HCl (pH 7.5)/150 mmol/L NaCl/10 mmol/L CaCl2; 0-200 nmol/L Wnt in 5% BSA blocking solution, 30 min at RT; bound Wnt detected with a specific antibody; signal of wells without LRP1 subtracted; apparent KD (K_D,app), extrapolated from a one-phase decay nonlinear fit; both purified

The chains behind the UniProt entries cited, without tags or fusion partners. Residues count along the entry.
UniProt Q07954, residues 20-4544: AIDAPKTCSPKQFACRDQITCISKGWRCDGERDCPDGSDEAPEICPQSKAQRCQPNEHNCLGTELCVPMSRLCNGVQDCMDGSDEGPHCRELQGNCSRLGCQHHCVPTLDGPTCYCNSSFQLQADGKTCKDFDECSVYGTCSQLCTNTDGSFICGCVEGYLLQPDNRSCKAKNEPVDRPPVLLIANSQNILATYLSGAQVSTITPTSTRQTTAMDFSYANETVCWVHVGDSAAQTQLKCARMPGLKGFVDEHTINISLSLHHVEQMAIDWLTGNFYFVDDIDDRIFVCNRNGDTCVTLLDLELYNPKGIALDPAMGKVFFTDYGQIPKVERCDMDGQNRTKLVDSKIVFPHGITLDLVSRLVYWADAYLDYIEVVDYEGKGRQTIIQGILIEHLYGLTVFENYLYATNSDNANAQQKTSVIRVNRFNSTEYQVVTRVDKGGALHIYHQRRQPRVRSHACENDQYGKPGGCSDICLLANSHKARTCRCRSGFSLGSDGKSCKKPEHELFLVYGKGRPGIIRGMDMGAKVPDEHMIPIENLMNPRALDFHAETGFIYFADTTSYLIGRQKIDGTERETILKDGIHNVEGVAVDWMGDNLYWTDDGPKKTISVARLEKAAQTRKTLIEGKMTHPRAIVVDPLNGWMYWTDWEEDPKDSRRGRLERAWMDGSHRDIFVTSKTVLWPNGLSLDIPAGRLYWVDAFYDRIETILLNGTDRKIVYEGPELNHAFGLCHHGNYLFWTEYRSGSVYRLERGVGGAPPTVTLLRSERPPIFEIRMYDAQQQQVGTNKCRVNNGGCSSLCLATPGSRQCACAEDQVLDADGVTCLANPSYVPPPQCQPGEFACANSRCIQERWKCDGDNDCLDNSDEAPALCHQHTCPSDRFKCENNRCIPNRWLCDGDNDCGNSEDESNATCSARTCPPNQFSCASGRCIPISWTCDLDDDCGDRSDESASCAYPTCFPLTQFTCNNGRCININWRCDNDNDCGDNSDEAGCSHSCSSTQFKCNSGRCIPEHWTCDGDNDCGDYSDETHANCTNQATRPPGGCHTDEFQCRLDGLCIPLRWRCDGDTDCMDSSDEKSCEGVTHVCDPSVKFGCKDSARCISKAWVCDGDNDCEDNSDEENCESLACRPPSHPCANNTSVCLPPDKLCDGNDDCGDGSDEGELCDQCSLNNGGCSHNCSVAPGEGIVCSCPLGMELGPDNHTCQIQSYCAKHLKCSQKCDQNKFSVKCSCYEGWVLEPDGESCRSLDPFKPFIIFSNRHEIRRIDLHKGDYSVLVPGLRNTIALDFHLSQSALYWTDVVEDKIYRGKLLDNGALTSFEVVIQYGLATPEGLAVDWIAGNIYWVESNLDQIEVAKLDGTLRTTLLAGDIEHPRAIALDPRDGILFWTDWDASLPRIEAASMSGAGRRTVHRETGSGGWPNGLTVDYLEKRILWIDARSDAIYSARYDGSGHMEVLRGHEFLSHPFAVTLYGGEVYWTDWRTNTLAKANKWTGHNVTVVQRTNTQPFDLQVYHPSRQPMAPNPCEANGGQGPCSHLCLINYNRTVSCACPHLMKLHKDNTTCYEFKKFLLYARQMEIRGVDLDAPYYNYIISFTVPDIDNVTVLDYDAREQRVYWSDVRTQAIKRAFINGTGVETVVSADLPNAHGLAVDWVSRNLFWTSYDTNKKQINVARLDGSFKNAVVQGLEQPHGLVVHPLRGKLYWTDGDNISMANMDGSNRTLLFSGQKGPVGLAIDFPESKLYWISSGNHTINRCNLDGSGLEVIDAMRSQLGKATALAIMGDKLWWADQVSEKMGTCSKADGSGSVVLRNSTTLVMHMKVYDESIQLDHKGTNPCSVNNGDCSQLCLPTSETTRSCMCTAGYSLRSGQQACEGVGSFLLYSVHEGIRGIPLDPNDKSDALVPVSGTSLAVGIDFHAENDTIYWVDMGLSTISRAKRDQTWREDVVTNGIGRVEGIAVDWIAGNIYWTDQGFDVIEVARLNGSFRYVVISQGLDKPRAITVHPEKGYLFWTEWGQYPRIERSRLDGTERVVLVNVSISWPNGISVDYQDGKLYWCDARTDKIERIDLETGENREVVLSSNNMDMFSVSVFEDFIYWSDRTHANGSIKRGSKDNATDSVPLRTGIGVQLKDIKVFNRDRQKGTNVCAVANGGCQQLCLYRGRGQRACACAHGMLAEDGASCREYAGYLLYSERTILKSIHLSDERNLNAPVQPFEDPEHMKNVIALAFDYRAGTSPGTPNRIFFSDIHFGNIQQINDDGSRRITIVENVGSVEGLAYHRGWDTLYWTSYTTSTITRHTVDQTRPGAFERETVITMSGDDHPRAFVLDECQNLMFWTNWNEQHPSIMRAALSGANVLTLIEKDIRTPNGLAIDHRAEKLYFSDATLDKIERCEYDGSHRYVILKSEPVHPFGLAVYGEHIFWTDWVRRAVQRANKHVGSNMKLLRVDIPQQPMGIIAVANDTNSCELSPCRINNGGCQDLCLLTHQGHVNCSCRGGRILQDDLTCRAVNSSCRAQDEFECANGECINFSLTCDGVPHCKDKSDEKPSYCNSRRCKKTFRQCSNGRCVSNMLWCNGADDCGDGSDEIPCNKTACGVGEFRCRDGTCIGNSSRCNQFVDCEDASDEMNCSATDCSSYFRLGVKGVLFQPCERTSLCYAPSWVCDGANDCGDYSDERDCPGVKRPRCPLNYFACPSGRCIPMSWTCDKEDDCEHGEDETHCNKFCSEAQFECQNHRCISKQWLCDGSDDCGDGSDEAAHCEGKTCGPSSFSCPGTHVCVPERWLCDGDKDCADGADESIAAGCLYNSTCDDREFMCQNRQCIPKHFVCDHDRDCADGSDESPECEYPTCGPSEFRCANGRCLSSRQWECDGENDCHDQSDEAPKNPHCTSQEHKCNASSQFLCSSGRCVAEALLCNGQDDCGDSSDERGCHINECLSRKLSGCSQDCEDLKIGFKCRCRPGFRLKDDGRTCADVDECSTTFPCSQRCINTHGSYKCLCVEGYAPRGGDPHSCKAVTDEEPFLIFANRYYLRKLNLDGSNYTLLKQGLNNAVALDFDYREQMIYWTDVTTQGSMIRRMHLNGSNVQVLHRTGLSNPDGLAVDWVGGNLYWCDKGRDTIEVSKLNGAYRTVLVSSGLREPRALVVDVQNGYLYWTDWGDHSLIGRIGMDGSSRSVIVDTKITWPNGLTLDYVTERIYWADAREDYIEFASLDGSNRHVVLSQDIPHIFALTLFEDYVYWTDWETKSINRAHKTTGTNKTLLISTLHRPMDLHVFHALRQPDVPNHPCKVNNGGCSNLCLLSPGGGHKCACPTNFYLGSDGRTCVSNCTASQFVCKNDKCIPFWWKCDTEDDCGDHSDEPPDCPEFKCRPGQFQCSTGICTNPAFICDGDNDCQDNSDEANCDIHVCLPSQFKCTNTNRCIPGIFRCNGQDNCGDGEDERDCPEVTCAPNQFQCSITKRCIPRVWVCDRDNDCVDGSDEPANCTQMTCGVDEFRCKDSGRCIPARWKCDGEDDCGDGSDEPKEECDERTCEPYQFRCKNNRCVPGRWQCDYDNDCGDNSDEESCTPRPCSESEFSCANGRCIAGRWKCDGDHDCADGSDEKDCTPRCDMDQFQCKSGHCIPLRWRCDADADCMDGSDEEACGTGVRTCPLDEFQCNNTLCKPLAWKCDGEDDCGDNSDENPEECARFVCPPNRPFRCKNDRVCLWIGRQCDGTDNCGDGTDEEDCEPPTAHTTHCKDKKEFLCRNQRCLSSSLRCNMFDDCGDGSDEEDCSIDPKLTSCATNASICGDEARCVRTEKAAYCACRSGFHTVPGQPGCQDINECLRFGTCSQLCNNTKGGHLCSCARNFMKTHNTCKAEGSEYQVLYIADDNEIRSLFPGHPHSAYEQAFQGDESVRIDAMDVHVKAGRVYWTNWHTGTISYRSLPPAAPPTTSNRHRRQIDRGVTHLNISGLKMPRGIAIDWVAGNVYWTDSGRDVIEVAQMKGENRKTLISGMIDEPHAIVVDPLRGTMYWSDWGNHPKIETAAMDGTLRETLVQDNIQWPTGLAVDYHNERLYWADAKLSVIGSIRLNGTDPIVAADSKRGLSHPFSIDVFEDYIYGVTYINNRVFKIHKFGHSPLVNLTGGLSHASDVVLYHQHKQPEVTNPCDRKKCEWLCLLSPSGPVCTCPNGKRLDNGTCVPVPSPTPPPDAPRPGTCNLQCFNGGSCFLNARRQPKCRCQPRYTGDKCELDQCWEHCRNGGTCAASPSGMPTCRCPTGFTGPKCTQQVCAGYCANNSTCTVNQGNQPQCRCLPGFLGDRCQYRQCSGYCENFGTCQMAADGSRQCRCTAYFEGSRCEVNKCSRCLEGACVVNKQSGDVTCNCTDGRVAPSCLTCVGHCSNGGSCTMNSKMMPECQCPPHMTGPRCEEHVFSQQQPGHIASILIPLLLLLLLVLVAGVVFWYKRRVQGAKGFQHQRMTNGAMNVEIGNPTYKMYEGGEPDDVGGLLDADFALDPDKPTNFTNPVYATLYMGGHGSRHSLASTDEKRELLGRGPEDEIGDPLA

B1: Wnt3a (ligand, UniProt P56704 19-352, looked up)
chain: SYPIWWSLAVGPQYSSLGSQPILCASIPGLVPKQLRFCRNYVEIMPSVAEGIKIGIQECQHQFRGRRWNCTTVHDSLAIFGPVLDKATRESAFVHAIASAGVAFAVTRSCAEGTAAICGCSSRHQGSPGKGWKWGGCSEDIEFGGMVSREFADARENRPDARSAMNRHNNEAGRQAIASHMHLKCKCHGLSGSCEVKTCWWSQPDFRAIGDFLKDKYDSASEMVVEKHRESRGWVETLRPRYTYFKVPTERDLVYYEASPNFCEPNPETGSFGTRDRTCNVSSHGIDGCDLLCCGRGHNARAERRREKCRCVFHWCCYVSCQECTRVYDVHTCK
notes: Wnt3a, purified protein; also called purified Wnt3a; source: purified
B1 was tested, and the binding was “no binding (tested: >200 nmol/L)”.

Reference: PMC11770177, “Skeletal progenitor LRP1 deficiency causes severe and persistent skeletal defects with Wnt pathway dysregulation” (Bone Research, 2025)
